Results deposited as PubChem BioAssay AID720505 (Drosophila RNAi Screening Center, 2013)

Test: 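Knock-downs that reduce calcium influx once internal stores are emptied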 (primary screen)
System: Drosophila S2R+ cells
Reagents: long dsRNA against Drosophila genes
Conditions: thapsigargin (2 µM) in calcium-free buffer to empty internal stores, then 2 mM calcium added back
Detection: 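Fluo-4 signal in 384-well plates read on a FLIPR after thapsigargin (2 µM, calcium-free) store depletion and 2 mM calcium add-back; unnormalised mean endpoint per well; screen run twice, selected wells retested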
Scale: calcium signal and retest calcium signal: higher = more calcium entry after store depletion
Rule for the call: 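Knock-downs counted as hits when calcium entry dropped relative to STIM1 positive and Rho1 negative controls present on each plate; roughly 1500 genes called, with reductions of differing size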
Meaning of the calls: active = called as lowering calcium entry; inactive = not called
The screen tested about 20,000 reagents; shown is a random part of those that have a named target and a result. Over the whole deposit, about 2,100 (10%) got an active call. 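Raw plate signals without normalisation; calls rest on control-based scores that were not deposited; replicate 2 separates called from uncalled poorly.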 The numbers tell different reagents against one gene apart. The record does not give: the amount of reagent, the time to read-out.

CG14246 (GeneID 3772140) scored calcium signal, replicate 1 = 128; calcium signal, replicate 2 = 95; retest calcium signal, replicate 1 = 5556; retest calcium signal, replicate 2 = 135; inactive.
CG9205 (GeneID 38113) showed calcium signal, replicate 1 = 142; calcium signal, replicate 2 = 136; inactive.
For Sfmbt (GeneID 34709), the values are calcium signal, replicate 1 = 94.8; calcium signal, replicate 2 = 125; inactive.
Silencing of CG33061 (GeneID 318838) #1 came out at: calcium signal, replicate 1 = 128; calcium signal, replicate 2 = 67.2; active.
CG33061 (GeneID 318838) #2 gave calcium signal, replicate 1 = 102; calcium signal, replicate 2 = 160; inactive.
Depletion of AOX1 (GeneID 41894) gave: calcium signal, replicate 1 = 85.3; calcium signal, replicate 2 = 113; inactive.
Against CG10916 (GeneID 37081), the entry reads calcium signal, replicate 1 = 162; calcium signal, replicate 2 = 86.7; inactive.
Against magu (GeneID 36048) the deposit lists calcium signal, replicate 1 = 190; calcium signal, replicate 2 = 168; inactive.
CG13614 (GeneID 42911) scored calcium signal, replicate 1 = 247; calcium signal, replicate 2 = 91.9; inactive.
With knock-down of Vps8 (GeneID 38735), the record shows calcium signal, replicate 1 = 104; calcium signal, replicate 2 = 76.3; inactive.
Against CG13639 (GeneID 12798257), the entry reads calcium signal, replicate 1 = 139; calcium signal, replicate 2 = 104; inactive.
Against Glg1 (GeneID 40382) #1, the values are calcium signal, replicate 1 = 103; calcium signal, replicate 2 = 82.8; inactive.
With knock-down of Glg1 (GeneID 40382) #2, the record shows calcium signal, replicate 1 = 78.2; calcium signal, replicate 2 = 142; inactive.
For Glg1 (GeneID 40382) #3 the deposit lists calcium signal, replicate 1 = 88; calcium signal, replicate 2 = 117; inactive.

2 of these entries in another layout:
gene	dsRNA no.	calcium signal, replicate 1	calcium signal, replicate 2	retest calcium signal, replicate 1	retest calcium signal, replicate 2	Outcome
CG13639 (GeneID 12798257)	1	139	104			inactive
Glg1 (GeneID 40382)	1	103	82.8			inactive
